# Experimental data from PubChem BioAssay AID2685 (National Center for Advancing Translational Sciences (NCATS), 2010).
# The list shows a part of the results. These are further read-outs of the screen, such as a control signal, another cell line or another target. No call is given for them. The list favours compounds with an active or inconclusive main result. Words in brackets tell the shape of the fitted curve; partial curves, single points and poor fits give uncertain potencies.
# Assay: qHTS Assay for Lipid Storage Modulators in Drosophila S3 Cells;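 for cell number change: cells counted by Cell Tracker Red CMTPX staining in the red channel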
# Settings: BODIPY lipid droplet fluorescence, 18-24 h; for cell number change: measured here: cell count max response, cells fed with added oleic acid
# How it was run: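 Drosophila S3 cells loaded with oleic acid (400 uM, as added) and compounds at several concentrations; lipid droplets imaged by 488-nm laser-scanning cytometry, 500–530 nm intensity and object ratio to cell channel. Percent activity normalized to 20 uM Triacsin C.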
# [1] = measured here: cell number channel AC50, cells fed with added oleic acid
# [2] = measured here: lipid fluorescence (Fed channel) AC50, cells fed with added oleic acid
Compound,cell number change,AC50 [1],AC50 [2]
O=C(NC1CCCC1)C(c1ccncc1)N(C(=O)c1ccco1)c1ccc(F)c(Cl)c1 (centres undefined),-2.08%,–,–
CN(CC(=O)Nc1ccccc1Cl)C(=O)COC(=O)C1CC1,11.4%,–,–
CSc1nc2c(cnn2-c2ccccc2)c(=O)n1N,44.7%,"0.259 µM [rising, full curve]","0.164 µM [rising, full curve]"
CCCc1nnc(NC(=O)C(=O)NCCN(C)C)s1,28%,–,"16.4 µM [rising, single point]"
CCCC(=O)C1=C(O)C(C(=O)OC)C(C)(C)CC1=NC(C)(C)C (centres undefined),36.8%,"29.1 µM [rising, single point]",–
COc1cc(S(=O)(=O)N2CCCCC2)ccc1NC(=O)/C=C/c1ccccc1,42.3%,"6.51 µM [rising, partial curve]","2.91 µM [rising, single point]"
COc1ccc(CNC(c2ccccc2)c2ccc(Cl)cc2)cc1 (centres undefined),67.5%,"29.1 µM [rising, single point]","29.1 µM [rising, single point]"
Cc1ccc(CNc2ncnc3cc(Cl)ccc23)o1,21%,–,"5.17 µM [rising, full curve]"
Cc1cc(C)n(-c2ccc(NC(=O)C3CCCCN3C(=O)c3occc3C)cc2)n1 (centres undefined),42.7%,"14.6 µM [rising, partial curve, poor fit]","29.1 µM [rising, single point]"
CCN(C(=O)CSc1nc2ccc(O)cc2c(=O)n1-c1ccc(OC)c(OC)c1)C1CCS(=O)(=O)C1 (centres undefined),17%,–,–
Cc1ccc(S(=O)(=O)N2CCN(CC(=O)Nc3ccccc3Cl)CC2)cc1,-6.64%,–,"4.11 µM [falling, full curve, poor fit]"
N#CC(/C(=N/S(=O)(=O)c1cccs1)c1ccccc1)c1nc2ccccc2[nH]1 (centres undefined),5.95%,–,"0.731 µM [falling, single point]"
Cc1nnc(C)n1/N=C/c1cc(Br)cc(Br)c1O,1.36%,–,"23.1 µM [falling, single point]"
COc1ccc(-c2nnc(SCC(=O)Nc3ncc(C(F)(F)F)cc3Cl)n2CC(C)C)cc1,17.1%,"6.51 µM [falling, single point]","13 µM [rising, partial curve, poor fit]"
CC1=C(C(=O)Nc2ccccc2)C(c2cccc([N+](=O)[O-])c2)Nc2nc3ccccc3n21 (centres undefined),-51.2%,"29.1 µM [falling, single point]","0.259 µM [rising, full curve]"
O=S(=O)(/N=C(/Nc1ccc(Cl)c(S(=O)(=O)N2CCOCC2)c1)c1ccc(F)cc1)c1ccccc1,31.4%,"2.06 µM [rising, full curve]","1.16 µM [rising, partial curve]"
CCc1ccc(N(CC(=O)N2CCCCCC2)S(C)(=O)=O)cc1,-19.9%,–,"29.1 µM [falling, single point]"
CC(C)C(C(=O)N1CCN(Cc2ccccc2)CC1)c1ccccc1 (centres undefined),2.41%,–,"3.66 µM [rising, single point]"
CCCCN(CCCC)CCNC(=O)c1cn(C)c2ccc(S(=O)(=O)N(C)C3CCCCC3)cc2c1=O,18.3%,–,–

Compound,cell number change,AC50 [1],AC50 [2]
COc1ccccc1C(=O)NC(=O)COC(=O)c1ccc([N+](=O)[O-])cc1,-23.7%,–,"0.13 µM [falling, full curve]"
COc1ccc(NC(=O)c2ccco2)cc1NC(=O)c1ccco1,1.94%,–,"13 µM [rising, partial curve]"
Cc1cccc(NC(=O)CSc2ncnc3sc(C)cc23)c1,10.4%,–,"11.6 µM [falling, single point]"
CC(Oc1ccc2c3c(c(=O)oc2c1)CCCC3)C(=O)NCc1ccncc1 (centres undefined),-36.1%,–,–
CN(CC(=O)Nc1cccc(F)c1)CC(=O)Nc1cccc(S(=O)(=O)N2CCCCC2)c1,-10.7%,–,"32.6 µM [falling, single point]"
Cc1nnc(SC/C=C/c2ccccc2)n(N)c1=O,-38.4%,"0.146 µM [falling, full curve, poor fit]",–
CCN(CC)S(=O)(=O)c1ccc(Cl)c(NC(C)=O)c1,-40.6%,"29.1 µM [falling, single point]",–
CCOC(=O)c1nnsc1NC(C)=O,90.4%,"8.2 µM [rising, partial curve]","6.51 µM [rising, single point]"
O=c1c2cnn(-c3ccccc3)c2nc(-c2cccs2)n1-c1cccc(Cl)c1,-15.2%,–,"11.6 µM [falling, partial curve]"
CCc1c(C)nc(N)c(C#N)c1-c1ccccc1,-1.16%,–,"0.103 µM [falling, full curve, poor fit]"
O=C(OCCN1C(=O)c2ccccc2C1=O)c1ccc(S(=O)(=O)N2CCCCCC2)cc1,-89.8%,"9.2 µM [falling, partial curve]",–
O=C(Cc1ccc(Cl)cc1)NCCN1CCCC1,-43.4%,"1.46 µM [falling, full curve]","1.46 µM [falling, full curve]"
O=C(CSc1nnc2c(n1)[nH]c1ccccc12)Nc1cccc(S(=O)(=O)N2CCOCC2)c1,-30.1%,"9.2 µM [falling, partial curve]","6.51 µM [falling, partial curve]"
C/C(CCc1oc2ccccc2c1-c1ccc(C)o1)=N/O,-52.1%,"29.1 µM [falling, single point]","23.1 µM [falling, partial curve, poor fit]"
COc1ccccc1NC(=O)c1cc(S(=O)(=O)NC2CCCC2)ccc1F,-3.23%,–,–
COc1cc(-c2nc3cccc(C)n3c2NCC2CCCO2)ccc1O (centres undefined),-10.8%,–,"0.164 µM [falling, full curve, poor fit]"
Cc1ccc(CNCc2cc3c(C(C)(C)C)nn(-c4ccccc4)c3[nH]c2=O)cc1,-80.5%,"29.1 µM [falling, single point]",–
CCOC(=O)c1nn(-c2ccccc2F)c(-c2ccccc2)c1C(=O)c1ccccc1,2.3%,–,"0.146 µM [rising, full curve, poor fit]"
Cc1ccc(CNC(=O)CN(C)S(=O)(=O)c2cnc[nH]2)cc1,8.91%,–,"0.164 µM [falling, full curve, poor fit]"

Compound,cell number change,AC50 [1],AC50 [2]
COc1ccc(-c2nn(-c3ccccc3)cc2/C=C/C(=O)OCC(=O)Nc2cccc(C#N)c2)cc1,21.8%,–,"0.0058 µM [rising, full curve, poor fit]"
CCOc1ccc(NC(=O)C2CC(=O)N(CCc3ccc(OC)c(OC)c3)C2)cc1OCC (centres undefined),2.15%,"4.11 µM [rising, single point]","1.3 µM [rising, partial curve]"
Cc1cc(C)nc(SCc2nnc(SCC(=O)N3CCCc4ccccc43)o2)n1,33.4%,"6.51 µM [rising, single point]",–
COc1cc(NC(=O)c2ccc(C)cc2)c(OC)cc1NC(=O)CN1CCOCC1,1.94%,–,"0.13 µM [falling, full curve, poor fit]"
Cc1ccc(C(=O)Nc2cc(-c3ccn[nH]3)c(C)n(N)c2=O)cc1,46%,"0.411 µM [rising, partial curve, poor fit]",–
COc1ccc(-c2nc3ccccc3c(=O)n2CCCn2ccnc2)cc1,-34.8%,"32.6 µM [falling, partial curve, poor fit]",–
Cc1ccc(NC(=O)COC(=O)c2c[nH]c3ccccc23)cc1C,9.98%,–,"0.326 µM [rising, full curve, poor fit]"
O=C1c2ccccc2C(=O)C12Cc1ccccc1N1CCN(c3ccccc3)CC12 (centres undefined),-1.12%,–,"0.326 µM [rising, full curve, poor fit]"
COc1ccc(S(=O)(=O)N2CCN(C(=O)c3cc(-c4ccc(C)cc4)n[nH]3)CC2)cc1,2.31%,–,"20.6 µM [falling, single point]"
O=C(CCCOc1ccccc1)Nc1cccc(C(=O)O)c1,-29.4%,–,"0.461 µM [falling, full curve]"
C=CCNC(=S)N/N=C/c1cn(C)c2ccccc12,–,–,"3.66 µM [rising, single point]"
O=C1c2cccnc2C(O)N1Cc1ccco1 (centres undefined),9.73%,–,"18.4 µM [falling, partial curve]"
CC(=O)Nc1nonc1-c1nc2ccccc2n1Cc1ccccn1,-0.8%,–,"11.6 µM [rising, partial curve, poor fit]"
Cc1cc[n+](CC(=O)c2cc3ccccc3oc2=O)cc1,–,–,"6.51 µM [falling, single point]"
O=C(N/N=C/c1ccc2c(c1)OCO2)C(=O)Nc1ccccc1Cl,-49.9%,"5.8 µM [falling, full curve]",–
CC(C)c1ccc(NC(=O)CCNS(=O)(=O)c2cccc3nsnc23)cc1,33.9%,–,"5.17 µM [falling, partial curve]"
CCN1C(=O)[C@H]2[C@@H](c3ccc(-c4ccc(C(C)=O)cc4)cc3)N3CCC[C@@]3(C(=O)OC)[C@H]2C1=O,-10.8%,"2.91 µM [falling, single point]",–
Cc1cc(=O)oc2cc(NC(=S)NNC(=O)c3c(Cl)cnn3C)ccc12,33.5%,"5.8 µM [rising, partial curve]","18.4 µM [rising, single point]"
Cc1nc2c3c(sc2c(=O)[nH]1)NC(=O)CC3c1ccccc1Cl (centres undefined),3.67%,"0.58 µM [rising, full curve]",–
